# Data: PubChem BioAssay AID1487 (National Center for Advancing Translational Sciences (NCATS), 2009)
# This is one part of the list. Further columns of the screen follow, without active or inactive calls. Compounds called inactive in the main read-out are mostly missing here. The note in brackets gives the kind of curve behind each potency; many fits are weak.
# Assay: qHTS Assay for Modulators of Lamin A Splicing
# Details: HeLa LMNA splicing GFP/RFP minigene ratio, 48 h
# Outline: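 Read-out is the ratio of GFP to DsRed2 object intensity, acquired by 488 nm laser-scanning cytometry on HeLa lamin A-EGFP minigene reporter cells. Compound incubation 48 hrs at 37 °C in Opti-MEM with 2% FBS; DMSO 0.5% final.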
# [1] = measured here: RFP viability control channel
# [2] = measured here: GFP splicing reporter channel
smiles,measurement,setting,value
Cc1ccc(-c2nc(C#N)c(NCc3cccc4c3OCO4)o2)cc1,AC50,[1],"22.4 µM [rising, single point]"
CC1Cc2cccc3c(O)c(C(=O)c4nn[nH]n4)c(=O)n1c23 (stereo not given),AC50,[1],"0.0501 µM [rising, full curve]"
CN(C(=O)CSC1=NC2C(N=N1)c1cc(Br)ccc1N2C)C1CCCCC1 (stereo not given),AC50,[2],"0.0316 µM [falling, full curve, poor fit]"
same,AC50,[1],"0.002 µM [falling, full curve, poor fit]"
C/C(=N\OCC(=O)N/N=C/c1ccccc1O)c1cccs1,AC50,[1],"35.5 µM [rising, single point]"
CCN(CC)c1ccc(NC(=O)c2ccccc2F)cc1,AC50,[1],"7.94 µM [rising, partial curve, poor fit]"
CCN(CC)c1ccc(/C=N/N2CCN(Cc3ccccc3)CC2)c(O)c1,AC50,[1],"20 µM [rising, single point]"
COc1ccc(CCNC(=S)Nc2ccccc2C)cc1,AC50,[2],"20 µM [falling, single point]"
same,AC50,[1],"22.4 µM [falling, single point]"
COc1ccccc1CNCC(=O)NCc1ccc(C)cc1,AC50,[1],"3.16 µM [rising, full curve, poor fit]"
CC1CCc2nc(NC(=O)c3ccc(S(=O)(=O)N4CCCc5ccccc54)cc3)sc2C1 (stereo not given),AC50,[1],"3.16 µM [rising, single point]"
COc1cc2c(cc1OC)C(CSc1ccccc1C(=O)O)=NC(C)(C)C2,AC50,[1],"0.891 µM [falling, full curve, poor fit]"
COc1cc2cc(CN(C(=O)NC3CCCCC3)C3CCCC3)c(=O)[nH]c2cc1OC,AC50,[2],"11.2 µM [rising, single point]"
CC(OC(=O)c1cc(=O)[nH]c2ccccc12)C(=O)c1ccccc1 (stereo not given),AC50,[2],"0.316 µM [rising, full curve]"
same,AC50,[1],"0.708 µM [rising, full curve]"
Nc1nc(SCc2ccc(Cl)cc2)[nH]c(=O)c1-c1ccccc1,AC50,[1],"35.5 µM [rising, single point]"
Cc1ccc(Nc2nc(N)nc(CSC(=S)N3CCN(c4ccccc4)CC3)n2)cc1,AC50,[1],"12.6 µM [rising, partial curve]"
O=C(c1ccco1)N1CCN(S(=O)(=O)c2ccc(Oc3ccccc3)cc2)CC1,AC50,[1],"15.8 µM [rising, single point]"
CCN(Cc1ccncc1)Cc1cn(C)nc1-c1ccc(Oc2ccccc2)cc1,AC50,[2],"35.5 µM [falling, partial curve, poor fit]"
same,AC50,[1],"35.5 µM [falling, partial curve, poor fit]"
CSc1nnc2c(n1)[nH]c1c(C)cccc12,AC50,[1],"25.1 µM [rising, single point]"
O=C(Nc1cccc(Cl)c1)Nc1cc(S(=O)(=O)N2CCCCC2)ccc1Cl,AC50,[1],"25.1 µM [rising, single point]"
COCc1nc2ccccc2n1Cc1ccc(Br)cc1,AC50,[1],"35.5 µM [rising, single point]"
Cc1ccccc1C(=O)Nc1sc(C)c(C)c1C(=O)c1ccccc1,AC50,[2],"25.1 µM [falling, single point]"
COC(=O)c1[nH]c2cc(C)ccc2c1NC(=O)CN1CCN(c2ccccc2OC)CC1,AC50,[1],"7.08 µM [rising, full curve, poor fit]"
O=S(=O)(c1cccc(NC(=S)N2CCN(c3cccc(Cl)c3)CC2)c1)C(F)F,AC50,[1],"11.2 µM [rising, partial curve]"
CC(C)CCCCCCNC(=S)Nc1ccc(S(=O)(=O)N2CCOCC2)cc1,AC50,[1],"31.6 µM [rising, single point]"
COc1ccc(Cn2c(-c3ccc(Br)cc3)c[n+]3ccccc23)cc1,AC50,[1],"7.94 µM [rising, partial curve, poor fit]"
CC1CCCCN1CCn1cnc2c([nH]c3ccccc32)c1=O (stereo not given),AC50,[1],"22.4 µM [rising, single point]"
Cc1cnc(C(=O)NCCc2ccc(S(=O)(=O)NC(=O)NC3CCCCC3)cc2)cn1,AC50,[1],"0.0891 µM [rising, full curve, poor fit]"
O=C(Nc1ccc(Cl)cc1)N1CCC(CO)(Cc2ccccc2)CC1,AC50,[2],"10 µM [falling, partial curve, poor fit]"
COc1ccc(-c2cn[nH]c2-c2ccc(OCc3ccc([N+](=O)[O-])cc3)cc2O)cc1,AC50,[1],"10 µM [falling, single point]"
CCOC(=O)C1CCCN(C(=O)c2sc3nc(-c4ccc(F)cc4)cn3c2C)C1 (stereo not given),AC50,[1],"0.01 µM [falling, full curve, poor fit]"
c1ccc(C2=Nn3c(nnc3-c3n[nH]c4c3CCC4)SC2)cc1,AC50,[1],"7.94 µM [rising, partial curve]"
Fc1ccc(Nc2nc(N/N=C/c3ccco3)nc(N3CCCCC3)n2)cc1,AC50,[1],"35.5 µM [rising, single point]"
Oc1ccc(Br)cc1/C=N/n1cnc2ccccc21,AC50,[1],"17.8 µM [rising, single point]"
O=C(c1ccccc1)c1c[nH]c(C(=O)NCc2cccnc2)c1,AC50,[2],"2 µM [falling, partial curve]"
CC(=O)c1cccc(NC(=O)c2sc(-n3nc(C)c(CCC(C)C)c3C)nc2C)c1,AC50,[2],"5.62 µM [rising, single point]"
COc1ccc(NS(=O)(=O)c2ccc3c(c2)Cc2ccccc2-3)cn1,AC50,[2],"2 µM [rising, full curve]"
Cc1noc(C)c1CSCC(=O)N1CCN(c2ccc([N+](=O)[O-])cc2)CC1,AC50,[2],"12.6 µM [rising, single point]"
same,AC50,[1],"15.8 µM [rising, partial curve]"
COc1ccc(N2CC(NC(=O)Cc3cccs3)CC2=O)cc1 (stereo not given),AC50,[2],"1.26 µM [falling, partial curve, poor fit]"
same,AC50,[1],"0.00501 µM [falling, full curve, poor fit]"
CCCCNc1ncnc2c1cnn2-c1ccccc1,AC50,[1],"35.5 µM [rising, single point]"
Cc1nc2ncccn2c1-c1csc(Nc2ccc(N(C)C)cc2)n1,AC50,[2],"0.00501 µM [falling, full curve, poor fit]"

# Retrieved one by one from above (three):
smiles,measurement,setting,value
CCN(Cc1ccncc1)Cc1cn(C)nc1-c1ccc(Oc2ccccc2)cc1,AC50,[1],"35.5 µM [falling, partial curve, poor fit]"
CCN(CC)c1ccc(/C=N/N2CCN(Cc3ccccc3)CC2)c(O)c1,AC50,[1],"20 µM [rising, single point]"
O=C(Nc1ccc(Cl)cc1)N1CCC(CO)(Cc2ccccc2)CC1,AC50,[2],"10 µM [falling, partial curve, poor fit]"
